From PubChem BioAssay AID485318 (Broad Institute, 2010)
Screen size: about 1,400 compounds; fewer than 10 were called active.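 The calls were made as follows: active = fluorescence-lowering compounds whose fitted half-maximal concentration is at or below ten times the highest valid dose tested; inconclusive = flat curve at 30 to 70% inhibition, or poor fit; inactive = the rest.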 This is one part of the list.

Chains of the proteins cited; added tags and fusions are not shown. Lines headed by an entry give the natural chain unless they say otherwise; changes in a name come on top.
UniProt O15379: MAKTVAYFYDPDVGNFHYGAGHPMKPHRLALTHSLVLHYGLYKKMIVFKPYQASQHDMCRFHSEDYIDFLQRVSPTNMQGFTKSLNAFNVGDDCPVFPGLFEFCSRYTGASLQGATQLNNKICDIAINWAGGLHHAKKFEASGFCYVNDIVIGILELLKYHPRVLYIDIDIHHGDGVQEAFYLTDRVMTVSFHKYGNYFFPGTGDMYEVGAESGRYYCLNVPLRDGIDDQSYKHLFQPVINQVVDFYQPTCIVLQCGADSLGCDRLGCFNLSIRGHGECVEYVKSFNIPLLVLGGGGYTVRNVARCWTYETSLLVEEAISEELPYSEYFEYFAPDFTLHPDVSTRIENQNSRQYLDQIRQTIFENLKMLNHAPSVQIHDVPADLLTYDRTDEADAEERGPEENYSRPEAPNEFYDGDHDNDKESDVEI

Target: Histone deacetylase 3 (Homo sapiens) (UniProt O15379)
Test: inhibition of human HDAC3 enzymatic activity – biochemical, fluorescence, cherry-picked samples, counter-screen for JMJD2C/GASC1 demethylase inhibitor project, dose response (AID 485318);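 also: enzyme preincubated with compound before substrate and trypsin were added; 0% = neutral control wells and -100% = SAHA positive control wells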
Conditions: recombinant HDAC3, fluorogenic peptide/trypsin coupled; at 12 µM (top of the series)

| SMILES | activity change, negative = inhibition |
| --- | --- |
| Cc1nc(C(C)NC(=O)CCc2nnc(CCCc3ccccc3)o2)c(C)s1 (centres undefined) | inactive: -0.657% |
| CCOC(=O)c1sc(=S)n(-c2ccc(Cl)cc2)c1SC | inactive: 0.862% |
| COc1ccc(CC(=O)Nc2ccc(S(=O)(=O)N(C)C)cc2)cc1OC | inactive: -0.171% |
| O=C(CSc1nnc(CNC(=O)c2ccco2)o1)NC1CCCC1 | inactive: 0.355% |
| CCCC(=O)NC(c1cccs1)c1cc(Cl)c2cccnc2c1O (centres undefined) | inactive: -0.547% |
| CCNC(=S)NNC(=O)c1csc2c1CCC(C)C2 (centres undefined) | inactive: 0.337% |
| O=C(c1cccs1)N1CCN(S(=O)(=O)c2ccc(F)cc2)CC1 | inactive: 0.208% |
| CCOC(=O)C1=C(C)NC(=O)NC1c1c(C)nn(-c2ccccc2)c1Cl (centres undefined) | inactive: 0.387% |
| Cc1cccc(NC(=O)CCN2CCN(C/C=C/c3ccccc3)CC2)c1 | inactive: -0.344% |
| CCC(C(=O)NCCCc1ccccc1)c1ccccc1 (centres undefined) | inactive: 0.435% |
| COCCn1nnnc1C(c1ccccc1)N1CCN(C(=O)c2ccco2)CC1 (centres undefined) | inactive: -0.0066% |
| CC(=O)Oc1ccc(NC(=O)Cc2ccccc2)c(C(=O)O)c1 | inactive: 0.179% |
| CCOC(=O)Cn1c(=O)cnc2ccccc21 | inactive: -0.102% |
| CC(C)CCN(C(=O)C1=COCCO1)c1c(N)n(Cc2ccccc2)c(=O)[nH]c1=O | inactive: -0.567% |
| O=C(Cn1cnc2ccccc2c1=O)NCc1cccs1 | inactive: 1.05% |
| CCc1nn2c(N3CCOCC3)cc(C)nc2c1-c1ccc(F)cc1 | inactive: 0.143% |
| CC(=O)c1ccc(O[C@@H]2O[C@H](CO)[C@@H](O)[C@H](O)[C@H]2O)cc1 | inactive: -0.355% |
| CCCCn1c(-c2ccsc2)nc2c1c(=O)[nH]c(=O)n2CCC | inactive: 0.225% |
| CCN(CC)CCSc1nc2ccccc2c(=S)n1-c1ccccc1 | inactive: -0.421% |
| CC(=O)C[C@@H](O)CC(=O)[C@H]1OC(=O)[C@H](C)C/C=C\Cc2ccccc21 | inactive: -0.625% |
| CCC(CO)Oc1cc(NC(=O)c2cccc(OC)c2)c2ncn(C(C)C)c2c1 (centres undefined) | inactive: -0.418% |
| CC(C)(C)NC(=O)C1CCN(C(=O)c2ccc(Br)cc2)CC1 | inactive: -0.16% |
| O=[N+]([O-])c1ccccc1N/N=C\c1ccccc1Cl | inactive: -0.288% |

| SMILES | activity change, negative = inhibition |
| --- | --- |
| Cc1noc(C)c1NC(=O)Nc1cccc2c1O[C@H](CN(C)C(=O)Nc1ccc3c(c1)OCO3)[C@@H](C)CN([C@H](C)CO)C2=O | inactive: 0.208% |
| Cc1ccc(/C=N\NC(=O)c2cc([N+](=O)[O-])cc([N+](=O)[O-])c2)o1 | inactive: -0.64% |
| O=C(O)CCCNC(=O)c1cccc(C(=O)NCCCC(=O)O)n1 | inactive: 1.32% |
| COc1ccc(C)cc1NC(=O)CN(C)S(=O)(=O)c1ccc2c(c1)CC(C)N2C(C)=O (centres undefined) | inactive: 0.478% |
| Cc1ccc(NN=Nc2nc3c([nH]2)c(=O)n(C)c(=O)n3C)cc1 | inactive: -0.597% |
| CCCCNC(=O)OCCNC(=O)Oc1cccc(C)c1 | inactive: -0.629% |
| Cc1ccc(OC(=O)c2ccc3nc(C)sc3c2)cc1 | inactive: 0.613% |
| Cc1cc(OC(=O)N2CCOCC2)cc(C)c1Cl | inactive: 0.236% |
| O=C(COC(=O)C1(c2ccccc2F)CCCC1)Nc1ncc(C(F)(F)F)cc1Cl | inactive: -0.037% |
| Cc1ccc(S(=O)(=O)N2[C@@H](c3ccc(Cl)c(Cl)c3)C(C(=O)O)=C[C@H]2C(C)(C)C)cc1 | inactive: -0.663% |
| Cc1cccc(C(=O)N/N=C/C(C)Cc2ccc3c(c2)OCO3)c1 (centres undefined) | inactive: -0.0551% |
| C[C@H]1CN([C@@H](C)CO)C(=O)Cc2cc(NS(=O)(=O)c3cccs3)ccc2O[C@H]1CN(C)S(=O)(=O)c1cn(C)cn1 | inactive: -0.706% |
| CNC(=O)C1=NCCCc2cc(OC)c(OC)cc21 | inactive: -0.166% |
| Nc1c(C(=O)NC2CC2)sc2nc3c(c(-c4ccco4)c12)CC/C3=C/c1ccco1 | inactive: -0.316% |
| Cc1cc(C)nc(NC(N)=NC(C)c2ccccc2)n1 (centres undefined) | inactive: 0.352% |
| CC(C)CC1c2[nH]c3ccccc3c2CCN1C(=O)c1cnccn1 (centres undefined) | inactive: -1.25% |
| Cc1nn(C)c(N)c1C(O)(c1nccn1C)C(F)(F)F (centres undefined) | inactive: 0.0673% |
| COc1ccc(S(=O)(=O)Nc2ccc3c(c2)C(=O)N([C@H](C)CO)C[C@H](C)[C@@H](CN(C)S(=O)(=O)c2c(C)noc2C)O3)cc1 | inactive: -0.195% |
| CSc1nc(N)nc2c1ncn2CC(=O)NCCNc1ccc([N+](=O)[O-])cn1 | inactive: -0.105% |
| Cc1ccc(S(=O)(=O)Nc2ccc3c(c2)C(=O)N([C@H](C)CO)C[C@H](C)[C@@H](CN(C)Cc2ccccc2)O3)cc1 | inactive: -0.143% |
| COc1ccccc1N1CCN(c2nc3c(C)cccn3c(=O)c2C=O)CC1 | inactive: 0.107% |
| CNCCNC[C@H](Cc1cccc2ccccc12)NCCc1ccccc1 | inactive: 0.726% |
| COC(=O)CSC1=C(C#N)C(c2ccsc2)CC(=O)N1 (centres undefined) | inactive: 0.541% |

Reprinted at random: 2 compounds from above

| SMILES | activity change, negative = inhibition |
| --- | --- |
| Cc1nn(C)c(N)c1C(O)(c1nccn1C)C(F)(F)F (centres undefined) | inactive: 0.0673% |
| Cc1cc(OC(=O)N2CCOCC2)cc(C)c1Cl | inactive: 0.236% |

(continued)

| SMILES | activity change, negative = inhibition |
| --- | --- |
| C/C(=N\NC(=O)c1ccncc1)c1ccc(N(C)C)cc1 | inactive: 0.954% |
| CCCn1nnnc1SCC(=O)NCc1ccc(OC)cc1 | inactive: -0.104% |
| O=c1c(O)cccc2cc(O)c(O)c(O)c12 | inactive: -0.21% |
| CCCC(CCC)C(=O)Nc1cccc(-c2cn3c(n2)SCC3)c1 | inactive: -0.0929% |
| COc1cccc(NC(=O)N2CCN(c3cccc(C)c3)C(C)C2)c1 (centres undefined) | inactive: 0.124% |
| Fc1ccc(-c2csc(Nc3ccccn3)n2)cc1 | inactive: 0.334% |
| CC[C@@H]1CCCCc2ccccc2[C@@H](C(=O)C[C@@H](O)CC(C)=O)OC1=O | inactive: 0.383% |
| Cc1ccc(NC2=NCC(=O)N2Cc2ccc3c(c2)OCO3)c(C)c1 | inactive: 0.52% |
| CCOc1cccc(C2C(C(=O)c3ccco3)=C(O)C(=O)N2Cc2ccncc2)c1 (centres undefined) | inactive: -0.0935% |
| CSc1nc(N2CCN(C)CC2)c2c(c1C#N)CC(C)(C)OC2 | inactive: 0.22% |
| O=C(CSc1nnc(CNC(=O)c2cccs2)o1)c1ccccc1 | inactive: 0.0984% |
| O=[N+]([O-])c1ccccc1S(=O)(=O)N1CCN(Cc2ccc3c(c2)OCO3)CC1 | inactive: -0.716% |
| COc1cccc(/C=N/NC(=O)CNC(=O)c2cccs2)c1O | inactive: 0.431% |
| O=C(Cc1sc(-c2ccccc2)nc1-c1ccccc1)Nc1ccccc1 | inactive: -0.152% |
| COc1ccc(CC(=O)Nc2ccc(/C(C)=N/NC(=O)c3cccc([N+](=O)[O-])c3)cc2)cc1 | inactive: -0.185% |
| O=C(NC(=S)Nc1ccccn1)c1ccc([N+](=O)[O-])cc1 | inactive: 1.11% |
| Cc1nnc2c(N3CCN(C(=O)c4ccco4)CC3)nc3ccccc3n12 | inactive: 0.2% |
| COc1ccc(CNC(=O)CSc2nnnn2Cc2ccccc2)cc1 | inactive: 0.244% |
| Clc1cccc(Cl)c1Cn1c(-c2cccnc2Cl)nc2ccccc21 | inactive: 0.825% |
| COc1ccc(OCC(=O)N2CCC3(CC2)CC(=O)c2ccccc2O3)cc1 | inactive: -0.153% |
| CC(=O)C(Sc1nc(N2CCOCC2)nc(N2CCOCC2)n1)C(=O)Nc1ccccc1 (centres undefined) | inactive: 0.0396% |
| COc1cc(S(=O)(=O)N(Cc2cccs2)CC2CCCO2)ccc1-n1cnnn1 (centres undefined) | inactive: -0.204% |
| COc1ccc(CCNC(=O)c2ccc3c(c2)NC(=O)C(N2CCOCC2)S3)cc1OC (centres undefined) | inactive: -0.744% |

Look-ups from above.
activity change, negative = inhibition, Cc1nnc2c(N3CCN(C(=O)c4ccco4)CC3)nc3ccccc3n12 is entered as inactive: 0.2%
activity change, negative = inhibition, COc1ccc(CCNC(=O)c2ccc3c(c2)NC(=O)C(N2CCOCC2)S3)cc1OC (centres undefined) is entered as inactive: -0.744%

Next structures follow:

| SMILES | activity change, negative = inhibition |
| --- | --- |
| CC(C)NC(=O)Nc1cccc2c1O[C@H](CN(C)C(=O)NC1CCCCC1)[C@H](C)CN([C@H](C)CO)C2=O | inactive: 0.502% |
| NC(=O)COc1cccc2cccnc12 | inactive: 0.026% |
| O=C(Nc1cccc(Cl)c1)NC1CCN(C2CCCCC2)C1 (centres undefined) | inactive: -0.217% |
| Cc1ccc(NC(=O)COC(=O)c2ccco2)cc1S(=O)(=O)N1CCOCC1 | inactive: 0.773% |
| C=CCNC(=S)NNC(=O)COc1cccc(Cl)c1 | inactive: -0.462% |
| CCn1c(SCC(=O)NCc2ccco2)nnc1-c1cccs1 | inactive: -0.00731% |
| Nc1cc(OC(=O)c2ccccc2Br)nn1S(=O)(=O)c1ccccc1 | inactive: 0.388% |
| CN(CCCNC(=O)CSc1cc(=O)n(C)c2ccc(Cl)cc12)Cc1ccccc1 | inactive: 0.623% |
| O=C(NCc1nnc(SCC(=O)N2CCCCC2)o1)c1c(F)cccc1F | inactive: -0.609% |
| Cc1cc(C)c2cc(C#N)c(SCC(=O)Nc3ccc4c(c3)OCO4)nc2c1 | inactive: 0.645% |
| CN(C)CCOc1ccc(-c2c(-c3ccccc3)sc3ccccc23)cc1 | inactive: 0.31% |
| Cn1c(=O)c2[nH]c(N=NNc3ccccc3F)nc2n(C)c1=O | inactive: -0.988% |
| O=C1CC(N2CCC(O)(c3ccc(Cl)cc3)CC2)C(=O)N1Cc1ccc(N2CCCC2=O)cc1 (centres undefined) | inactive: 0.431% |
| Cn1nc(NC(=O)C(C)(C)C)c2c(F)cccc21 | inactive: 0.111% |
| COc1ccc(N=Cc2cccc(C)c2O)cc1Cl | inactive: -0.17% |
| O=c1[nH]cnc2c1c(-c1ccccc1)cn2-c1ccccc1 | inactive: 0.0419% |
| Cc1csc(SCC(=O)Nc2ccccc2C)n1 | inactive: -0.0897% |
| Cc1ccc(C)c(S(=O)(=O)Nc2cc(SCC(=O)O)c(O)c3ccccc23)c1 | inactive: -0.0417% |
| COc1ccc(C)cc1-n1nnnc1SC/C(O)=C(\C#N)c1nc2ccccc2[nH]1 | inactive: -0.515% |
| CCCS(=O)(=O)N1CCN(S(=O)(=O)c2ccccc2[N+](=O)[O-])CC1 | inactive: -0.268% |
